Here are results for 108 sequences from PubChem BioAssay AID1508600 (Functional Genomics Laboratory (NCATS/FGL), 2020).

The campaign covered roughly 53,000 sequences. About 3,700 (7%) were called active.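 Rule for the calls: active = gene knockdowns whose robust z-score for IL-1 alpha signal is at least 2 or at most -2, so actives lie on both sides; inactive = the rest.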 Some of the results follow.

The test is described as follows: Components of the Cytosolic LPS Sensing Pathway: Gene Identification via Genome-wide siRNA Screen.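 Note: robust z of the log signal after scaling to non-targeting control siRNA wells of the plate.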 To be noted: RAW264.7 macrophages, IL-1a HTRF, actives lie on both sides, screened at 100 nM (by protocol), cells primed 5 h with Pam3CSK4 first. The procedure, abridged:
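Read-out: IL-1a HTRF on supernatant, divided by plate negative-control median ×100, log-transformed and converted to robust z-score. Cells were RAW264.7 given 100 nM siRNA, Pam3CSK4-primed 5 hours, then LipidA-transfected 24 hour.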
A general note: TR-FRET usually uses a lanthanide donor and a delayed reading to cut background.
GGAAGAAGACACAAAAAAUTT against Rcan3: the z-score was active: 3.53. In the case of CCGUACGAUGAUAAUACCATT against Clec4a3 it was active: 2.29; in that of CCUCGCCUGUACUAGCUAUTT against Rilp, inactive: -0.501; in that of GCAUGCAACUAUUUAUCCATT against Zfr, inactive: -1.87. In the case of GGAGGAGUGCAAGGACUUUTT against Ift20 it was inactive: 0.146; in that of GGGCUGGUUCGAGCCAAUATT against Apoe, inactive: 1.62; in that of GCCUCAUCAAUCCACUGCATT against Mtss2, inactive: -0.956. In the case of GGUGGCUUUGGCUGCAUCUTT against Vrk1 it was inactive: -0.669; in that of GGCCUCUUCACUUAUGUAUTT against Inha, inactive: -0.22; in that of GGUUCAUUUUAACUGUAGATT against Lilra6, inactive: -0.752. As to GCCUUCAUUAUUUUAAUGCTT against Ilf3, the z-score was inactive: 0.0185. In the case of CCAUCAAUGUGCAGAAAUCTT against Zfp871 it was inactive: -0.893.

For the sequence GGGAGGCUGUUGUCAAUCCTT against Krtap5-4, the z-score was inactive: 0.368. In the case of GGAAAAAUUUCCAGAGGUUTT against Pnpt1 it was inactive: 0.267; in that of “GGUUAGUGCUCCAUUAUUCTT against D3Ertd751e”, inactive: -1.22; in that of GGAAAAGAUCACCAGGAGCTT against Pin1, inactive: -0.507. In the case of CCCACCGCCAUGACAUUAUTT against Klk15 it was inactive: -0.776; in that of “CCUGUAGUUUGUUGAAUCUTT against 2410018L13Rik”, inactive: 1.4.

Turning to GGCAAGAAAUUCUUCAGCATT against St8sia3, the z-score was inactive: -1.38. In the case of CGACCAUCUUUACUUUAUCTT against Cilk1 it was inactive: 1.61.

For GGUCUUUGAGACAGAUAUUTT against Colec12, the z-score is inactive: 0.0435. In the case of GGAUUUUCUGAAGCAAUGCTT against Olah it was inactive: -0.127; in that of GGGAUUCUGUCUGCACUGUTT against Olfr1145, active: -2.51. Turning to GCUGGGUGUAAUGUUUCCUTT against Tbcel, the z-score was inactive: 0.789.

As for GGGUCUGGAAUCCAUCCGUTT against Lin28a, the z-score was inactive: -1.25. With GGAGAGUACUUCCAGUAAGTT against Glycam1, the z-score was inactive: -0.329. In the case of GGAAGAAUUUUCGCCAACATT against Iqcb1 it was inactive: -0.214; in that of GGAGAUACAUUGGUAGGUATT against Idua, inactive: -0.469; in that of GGAUCAAUCAUGCAUCCAUTT against Lipc, inactive: 1.95.

Regarding GCUAGAAAUAGCCUUAGGUTT against Nceh1, the z-score was inactive: 0.598. In the case of GGAUAUGUGUUCAUCCUGUTT against Lrrc18 it was inactive: 0.0347; in that of GGUGUUGAGUGCACUACUGTT against Nckap5l, active: -2.2; in that of GCCAAUAUAGGUUUUAGGUTT against Serpinb6b, inactive: 1.04.

In the case of GGCGUACAGUAUUUCCUACTT against Il17d, the z-score was inactive: 0.79. In the case of GGAACACAAAGGUAAGAAATT against Raf1, the z-score is inactive: 0.0798. In the case of GGACAAAAAUGCAAGAAGATT against Klhl31 it was inactive: -0.473; in that of CCAUCUAAAGGCAUGCAAGTT against Cmah, inactive: -0.833. In the case of GCACAAAUUUGAAGAUCUATT against Ptprb it was inactive: 1.62. In the case of CCUCUGUAAGAUAAUGUUUTT against Ctsm it was inactive: 0.274; in that of GGGAAUCCGUCCCAAGAAGTT against Rrs1, inactive: 0.243; in that of GGUUUUUGACUUGAGUCAUTT against Olfr689, inactive: -1.69. CGGUUUCUAAAAGAAUUGGTT against Syt16: the z-score was inactive: -0.181. GGACGAUGUCUUAUAGAAGTT against Pih1d2: the z-score was inactive: 1.16. In the case of GCAUUGGAGCUAAAUCUGGTT against Tcap it was inactive: 0.395; in that of GGACAAUUGAAAACUGCCUTT against Gpd1, active: 2.95; in that of GGAAGAUUACCAACUUUGATT against Ric3, inactive: 0.765. As to GGCAUUCAGUAAGUUGUUATT against Pced1a, the z-score was inactive: 0.11. Consider GGUGGUGAUUCACCUCCAATT against Tnfrsf12a, for which the z-score was active: -2.23.

Take GCAUGGGAGCAGUGUGAACTT against Tubb4b: the z-score is inactive: 0.206.

For GCAUCGAAUGUUUGAACCCTT against Gstm6, the z-score was inactive: 0.782.

Consider GGAAAUGAUCUCUUUUGGATT against Bbs2, for which the z-score is inactive: -0.734. As to CCCAAAAAGUUUUGCUAACTT against Ing2, the z-score was inactive: 0.753. In the case of CCUACAUUCACCAAAAGGUTT against Usp9y it was inactive: -0.211; in that of GGGAAUGCACUACAACUACTT against Chpf, inactive: 1.16.

Turning to CCAAGAAUGCCCAGCAAGUTT against E4f1, the z-score was active: 2.39. Turning to GGUGUCUCUGAUGAAUCACTT against Syt15, the z-score is inactive: 1.21.

As for GCGAGUGUAUGCUUGAGAATT against Hspa12b, the z-score was inactive: 1.01. In the case of CCGGAAUCAAAACCUCUAGTT against Acsf3 it was inactive: -1.18; in that of GGCUACCAAGUGUACCAUUTT against Syt15, inactive: 1.16. In the case of GGCGACCUCUAGGUGUCUUTT against Bptf it was inactive: -0.879; in that of “GGAAAACAGGCAGGACUUCTT against D930020B18Rik”, inactive: -0.534; in that of GGAUUCGUAAACUUCAGAUTT against Igf2bp3, active: 3.41. In the case of CCUUAAUCGCAUCAAAUUATT against Slc1a3 it was active: 2.35; in that of GGGCUCAAGGUUAUUAAUGTT against Gjb1, inactive: 0.339; in that of GCGCGAUUCAGAGGUUUCATT against Raver2, inactive: 0.238. For GCCGACCAGUUCCUAGUGATT against Nol11, the z-score is inactive: 0.969. In the case of GGAGACACUGAACAUCUUATT against Kctd13, the z-score was inactive: -0.669. In the case of GGAACAUGAAAACACGAAUTT against Mier1 it was inactive: 0.22; in that of GGAAAGCCAGAAAAUUCACTT against Gimap6, inactive: 1.09; in that of GGCUUAGGUGUCCGAGAAATT against Wfdc2, inactive: -1.01. In the case of GCUUCAGUAUAACCUAGAATT against Catsper2 it was inactive: 0.554; in that of GGCCAGGACACUCAAAAACTT against Serpina3b, inactive: 0.13; in that of CCAGCAUGCAUCCAUUCUUTT against Mageb3, inactive: 0.638. In the case of GGCUUUAUAUCAAGAUUUGTT against Lrrc2 it was inactive: 1.7; in that of GGAGAGGAGUUGGAUAGAUTT against Mobp, inactive: -1.48.

As for CCCUUACAUCACACAGGACTT against Plppr3, the z-score was inactive: -0.645.

Regarding CCAGAUUAUCCGUUUAAACTT against Ube2e2, the z-score is inactive: 0.242.

As to CCAGGUCUAAAAGUAACAATT against Unc13b, the z-score was inactive: 0.709.

GGAAGAAACCUACGUUGAATT against Mterf2: the z-score is inactive: -0.666. In the case of GGAACCUAAUUGAAUGGCUTT against Cmbl it was inactive: 0.985. In the case of GGGAUGAAAAAAUUGGAUATT against Chd1, the z-score is inactive: -1.36.

For the sequence GGGAGUUCUGCUUUAUUGCTT against Bst2, the z-score was inactive: 0.87.

Consider GGACCUGGUAUCUCUAUAUTT against Rasgrp4, for which the z-score was inactive: -0.807.

With GGCACACCUAGACACAGAATT against Txnl4a, the z-score is inactive: -0.228.

For GGCUUCAGCUAACCAAGCUTT against Adat1, the z-score is inactive: -0.638. In the case of GGGACUUCAAAGCAGGUAGTT against Alx3 it was inactive: -1.82.

As for CGUGAACCGCCAGAAUGCUTT against Cdh5, the z-score was inactive: -0.403.

As for GGUAUUCAGGAAGUCACCATT against Krt4, the z-score is inactive: -0.637. In the case of CCUCCUGACUUGGAUAGAGTT against Agt it was inactive: 0.521. For GCACAUCAUUUAUCAGACATT against Ramp3, the z-score is inactive: -0.312. In the case of GGUGUGCUUAUUCAUGAGUTT against Prr18 it was inactive: -0.0356; in that of GGUUUUCACCCUGAAUGUGTT against Siglece, inactive: 0.134.

CCCUAAUAGAACUAAUGAATT against Kpnb1: the z-score is inactive: -0.904. In the case of GGCUGUUUGUUGUGUUUAATT against Rbm45 it was inactive: 1.61. In the case of CCAGUUGAAUUAGAAUCCATT against Ctns it was inactive: -1.08.

On to CCUUCUCAUCGGUCAUUCUTT against Prss48, for which the z-score was inactive: 0.348. In the case of GGACCAUAUGAACUUUAUUTT against Xpo7 it was inactive: -0.399; in that of GGGAAGAUCUUCAAGAAGGTT against Pa2g4, inactive: -0.089; in that of GGAGAAAUCAUCACAGUUATT against Snx9, inactive: 2. In the case of GGCAGGCCUCAGUUGAGAUTT against Pycrl it was inactive: 0.297.

In the case of GGAAAUUCCAUGUAUGACUTT against Tm7sf2, the z-score is inactive: -0.736.

Consider CGAAAAUCGAGAAUUCUUCTT against Nlrp9b, for which the z-score was inactive: 0.0767. GGAUGGACAUUUUGUCUUCTT against Mmp15: the z-score was inactive: 0.335. In the case of GGCAAUCUGCACUUUAUACTT against Pank2 it was inactive: -0.987; in that of GGAAAUACAGCUCUUGCUCTT against Ccny, inactive: -0.319; in that of CCCACAUAAGCGAAUCUCUTT against Cdk4, inactive: 0.522.

With GCAGAUCCAAUCAAAUCUCTT against Ly86, the z-score was inactive: 0.982.

As to CGACAUUGUGAUUAUCCAGTT against Elane, the z-score was inactive: -0.274.
